Assay [1] deals with EZH2 (endogenous) (mouse (endogenous in E14 mESCs)), Q61188. Nature of the assay: co-IP; co-immunoprecipitation of endogenous PRC2 subunits in Aebp2 WT and Aebp2 tr/tr mESCs, immunoblot. Particulars: remark: other sources report otherwise.
Assay [2] has as its target T1, FS2-tagged C17ORF96 homologue (UniProt Q7TNS8).
T1 sequence: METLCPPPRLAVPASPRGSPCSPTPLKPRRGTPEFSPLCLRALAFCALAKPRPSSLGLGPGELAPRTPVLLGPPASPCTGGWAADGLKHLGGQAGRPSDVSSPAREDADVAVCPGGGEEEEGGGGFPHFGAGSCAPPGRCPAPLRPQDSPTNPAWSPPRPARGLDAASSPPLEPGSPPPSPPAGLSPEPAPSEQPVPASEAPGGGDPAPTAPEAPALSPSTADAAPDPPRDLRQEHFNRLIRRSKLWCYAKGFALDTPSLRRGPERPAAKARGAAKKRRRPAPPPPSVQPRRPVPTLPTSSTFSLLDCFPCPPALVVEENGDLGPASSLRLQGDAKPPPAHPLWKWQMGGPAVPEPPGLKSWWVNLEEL
The assay is described as follows: co-IP; mESC lines stably expressing FS2-AEBP2 or FS2-C17ORF96 homologue; immunoprecipitation with the Flag-2xStrepII (FS2) antibody or the JARID2 antibody, immunoblot. In general terms: Immunoblotting shows a protein as a band on a membrane.

The target in assay [3] is T2, JARID2 (endogenous) (mouse (endogenous in E14 mESCs)), Q62315.
T2 chain: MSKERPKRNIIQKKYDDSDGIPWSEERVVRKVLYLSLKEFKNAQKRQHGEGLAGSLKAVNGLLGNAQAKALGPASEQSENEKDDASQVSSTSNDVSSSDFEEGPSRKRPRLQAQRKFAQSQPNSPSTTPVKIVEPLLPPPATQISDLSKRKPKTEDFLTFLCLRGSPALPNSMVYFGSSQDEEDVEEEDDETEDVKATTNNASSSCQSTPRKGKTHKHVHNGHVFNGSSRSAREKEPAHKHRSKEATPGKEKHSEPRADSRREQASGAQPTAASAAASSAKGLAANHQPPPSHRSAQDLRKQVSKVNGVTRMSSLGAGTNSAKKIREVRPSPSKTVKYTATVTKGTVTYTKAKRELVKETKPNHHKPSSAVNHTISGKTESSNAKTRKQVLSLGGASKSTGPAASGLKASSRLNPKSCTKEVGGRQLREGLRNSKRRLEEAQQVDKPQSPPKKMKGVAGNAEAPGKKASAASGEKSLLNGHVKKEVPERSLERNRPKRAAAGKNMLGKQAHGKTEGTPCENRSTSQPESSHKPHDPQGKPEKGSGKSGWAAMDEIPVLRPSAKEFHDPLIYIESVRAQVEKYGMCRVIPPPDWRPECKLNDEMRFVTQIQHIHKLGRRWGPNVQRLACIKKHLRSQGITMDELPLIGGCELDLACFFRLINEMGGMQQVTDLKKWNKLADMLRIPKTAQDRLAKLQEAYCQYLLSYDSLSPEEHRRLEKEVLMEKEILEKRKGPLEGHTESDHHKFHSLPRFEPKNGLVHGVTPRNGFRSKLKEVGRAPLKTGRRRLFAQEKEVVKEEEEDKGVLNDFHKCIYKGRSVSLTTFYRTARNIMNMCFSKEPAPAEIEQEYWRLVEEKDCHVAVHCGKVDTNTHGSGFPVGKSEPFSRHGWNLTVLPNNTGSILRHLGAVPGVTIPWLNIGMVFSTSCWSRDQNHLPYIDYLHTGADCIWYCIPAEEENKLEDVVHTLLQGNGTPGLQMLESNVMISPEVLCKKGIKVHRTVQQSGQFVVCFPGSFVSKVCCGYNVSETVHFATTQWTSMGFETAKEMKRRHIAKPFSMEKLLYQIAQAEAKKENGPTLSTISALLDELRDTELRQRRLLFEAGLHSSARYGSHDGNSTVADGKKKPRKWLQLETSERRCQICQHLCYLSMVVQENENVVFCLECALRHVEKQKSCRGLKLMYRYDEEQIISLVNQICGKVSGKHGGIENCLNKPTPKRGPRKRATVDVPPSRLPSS
Nature of the assay: co-IP; co-immunoprecipitation of endogenous PRC2 subunits in Aebp2 WT and Aebp2 tr/tr mESCs, immunoblot. Particulars: remark: other sources report otherwise.

No constants are given. Whether binding was seen depends on the method and setting. Binding seen in cells or lysates may run through a third protein. Some results given as binding are weak or reduced against the parent protein; the word gives no strength. For some of these results: Sequences can lack the tags named with a protein.

B1: JARID2 (endogenous), Q62315 1-1234 (protein)
chain: MSKERPKRNIIQKKYDDSDGIPWSEERVVRKVLYLSLKEFKNAQKRQHGEGLAGSLKAVNGLLGNAQAKALGPASEQSENEKDDASQVSSTSNDVSSSDFEEGPSRKRPRLQAQRKFAQSQPNSPSTTPVKIVEPLLPPPATQISDLSKRKPKTEDFLTFLCLRGSPALPNSMVYFGSSQDEEDVEEEDDETEDVKATTNNASSSCQSTPRKGKTHKHVHNGHVFNGSSRSAREKEPAHKHRSKEATPGKEKHSEPRADSRREQASGAQPTAASAAASSAKGLAANHQPPPSHRSAQDLRKQVSKVNGVTRMSSLGAGTNSAKKIREVRPSPSKTVKYTATVTKGTVTYTKAKRELVKETKPNHHKPSSAVNHTISGKTESSNAKTRKQVLSLGGASKSTGPAASGLKASSRLNPKSCTKEVGGRQLREGLRNSKRRLEEAQQVDKPQSPPKKMKGVAGNAEAPGKKASAASGEKSLLNGHVKKEVPERSLERNRPKRAAAGKNMLGKQAHGKTEGTPCENRSTSQPESSHKPHDPQGKPEKGSGKSGWAAMDEIPVLRPSAKEFHDPLIYIESVRAQVEKYGMCRVIPPPDWRPECKLNDEMRFVTQIQHIHKLGRRWGPNVQRLACIKKHLRSQGITMDELPLIGGCELDLACFFRLINEMGGMQQVTDLKKWNKLADMLRIPKTAQDRLAKLQEAYCQYLLSYDSLSPEEHRRLEKEVLMEKEILEKRKGPLEGHTESDHHKFHSLPRFEPKNGLVHGVTPRNGFRSKLKEVGRAPLKTGRRRLFAQEKEVVKEEEEDKGVLNDFHKCIYKGRSVSLTTFYRTARNIMNMCFSKEPAPAEIEQEYWRLVEEKDCHVAVHCGKVDTNTHGSGFPVGKSEPFSRHGWNLTVLPNNTGSILRHLGAVPGVTIPWLNIGMVFSTSCWSRDQNHLPYIDYLHTGADCIWYCIPAEEENKLEDVVHTLLQGNGTPGLQMLESNVMISPEVLCKKGIKVHRTVQQSGQFVVCFPGSFVSKVCCGYNVSETVHFATTQWTSMGFETAKEMKRRHIAKPFSMEKLLYQIAQAEAKKENGPTLSTISALLDELRDTELRQRRLLFEAGLHSSARYGSHDGNSTVADGKKKPRKWLQLETSERRCQICQHLCYLSMVVQENENVVFCLECALRHVEKQKSCRGLKLMYRYDEEQIISLVNQICGKVSGKHGGIENCLNKPTPKRGPRKRATVDVPPSRLPSS
Take B1: the binding entry in assay [1] is “binds”.

B2: JARID2 (endogenous) (protein, UniProt Q62315 1-1234)
chain: MSKERPKRNIIQKKYDDSDGIPWSEERVVRKVLYLSLKEFKNAQKRQHGEGLAGSLKAVNGLLGNAQAKALGPASEQSENEKDDASQVSSTSNDVSSSDFEEGPSRKRPRLQAQRKFAQSQPNSPSTTPVKIVEPLLPPPATQISDLSKRKPKTEDFLTFLCLRGSPALPNSMVYFGSSQDEEDVEEEDDETEDVKATTNNASSSCQSTPRKGKTHKHVHNGHVFNGSSRSAREKEPAHKHRSKEATPGKEKHSEPRADSRREQASGAQPTAASAAASSAKGLAANHQPPPSHRSAQDLRKQVSKVNGVTRMSSLGAGTNSAKKIREVRPSPSKTVKYTATVTKGTVTYTKAKRELVKETKPNHHKPSSAVNHTISGKTESSNAKTRKQVLSLGGASKSTGPAASGLKASSRLNPKSCTKEVGGRQLREGLRNSKRRLEEAQQVDKPQSPPKKMKGVAGNAEAPGKKASAASGEKSLLNGHVKKEVPERSLERNRPKRAAAGKNMLGKQAHGKTEGTPCENRSTSQPESSHKPHDPQGKPEKGSGKSGWAAMDEIPVLRPSAKEFHDPLIYIESVRAQVEKYGMCRVIPPPDWRPECKLNDEMRFVTQIQHIHKLGRRWGPNVQRLACIKKHLRSQGITMDELPLIGGCELDLACFFRLINEMGGMQQVTDLKKWNKLADMLRIPKTAQDRLAKLQEAYCQYLLSYDSLSPEEHRRLEKEVLMEKEILEKRKGPLEGHTESDHHKFHSLPRFEPKNGLVHGVTPRNGFRSKLKEVGRAPLKTGRRRLFAQEKEVVKEEEEDKGVLNDFHKCIYKGRSVSLTTFYRTARNIMNMCFSKEPAPAEIEQEYWRLVEEKDCHVAVHCGKVDTNTHGSGFPVGKSEPFSRHGWNLTVLPNNTGSILRHLGAVPGVTIPWLNIGMVFSTSCWSRDQNHLPYIDYLHTGADCIWYCIPAEEENKLEDVVHTLLQGNGTPGLQMLESNVMISPEVLCKKGIKVHRTVQQSGQFVVCFPGSFVSKVCCGYNVSETVHFATTQWTSMGFETAKEMKRRHIAKPFSMEKLLYQIAQAEAKKENGPTLSTISALLDELRDTELRQRRLLFEAGLHSSARYGSHDGNSTVADGKKKPRKWLQLETSERRCQICQHLCYLSMVVQENENVVFCLECALRHVEKQKSCRGLKLMYRYDEEQIISLVNQICGKVSGKHGGIENCLNKPTPKRGPRKRATVDVPPSRLPSS
As to B2, the binding entry in assay [2] was “no binding”.

B3: AEBP2 (endogenous) (protein, UniProt Q9Z248 1-504)
chain: MAAALADMADLEELSRLSPLSPGSPGPAARGRAEPPEEEEEEDDEEAEAEAVAALLLNGGAGGGAGGGEAETMSEPSPESASQAGGDEDEDEEDDEDEGSSSGGAEEESSAESLVGSSSGGCSGDETRSLSPGAASSSSGDGDGKEGLEEPKGPRGGPGGPGSSGGGSSSSSVVSSGGDEGYGTGGGGSSATSGGRRGSLEMSSDGEPLSRMDSEDSISSTLMDIDSTISSGRSTPAMMNGQGSTTASSKHIAYNCCWDQCQACFNSSPDLADHIRSIHVDGQRGGVFVCLWKGCKVYNTPSTSQSWLQRHMLTHSGDKPFKCVVGGCNASFASQGGLARHVPTHFSQQNSSKVSSQPKAKEESPSKAGMNKRRKLKNKRRRSLPRPHDFFDAQTLDAIRHRAICFNLSAHIESLGKGHSVVFHSTVIAKRKEESGKIKLLLHWMPEDILPDVWVNESERHQLKTKVVHLSKLPKDTALLLDPNIYRTMPQKRLKRFDILNFPR
B3: in assay [2], the binding result was “no binding”.

B4: PCL2 (MTF2), endogenous, Q02395 1-593 (protein)
chain: MRDSTGAGNSLVHKRSPLRRNQKTSASLNKLSLQDGHKAKKPACKFEEGQDVLARWSDGLFYLGTIKKINILKQSCFIIFEDSSKSWVLWKDIQTGATGSGEMVCTICQEEYSEAPNEMVICDKCGQGYHQLCHTPHIDSSVIDSDEKWLCRQCVFATTTKRGGALKKGPNAKALQVMKQTLPYSVADLEWDAGHKTNVQQCYCYCGGPGDWYLKMLQCCKCKQWFHEACVQCLQKPMLFGDRFYTFICSVCSSGPEYLKRLPLQWVDIAHLCLYNLSVIHKKKYFDSELELMTYINENWDRLHPGELADTPKSERYEHVLEALNDYKTMFMSGKEIKKKKHLFGLRIRVPPVPPNVAFKAEKEPEGTSHEFKIKGRKASKPTSDSREVSNGIEKKGKKKSVGRPPGPYTRKMIQKTAELPLDKESVSENPTLDLPCSIGRTEGIAHSSNTSDVDLTGASSANETTSASISRHCGLSDSRKRTRTGRSWPAAIPHLRRRRGRLPRRALQTQNSEVVKDDEGKEDYQFEELNTEILNNLADQELQLNHLKNSITSYFGAAGRIACGEKYRVLARRVTLDGKVQYLVEWEGATAS
B4: in assay [3], the binding result is listed as “binds”.

Values taken from article PMC5004903.
